For at least one entry, the source does not settle the construct or the ends of the probe.
Test system: RisR (Strep-II tag removed by enterokinase)
Assay: DNase I footprinting
Conditions: holo-RisR 1 uM, ~10 nM DNA, anaerobic, tag cleaved, 25 mM potassium phosphate, 30 mM KCl, 5 mM potassium glutamate, 100 ug/mL BSA, 1 mM DTT, 37 C, 25 min, pH not stated, recombinant protein, protein details: N-terminal Strep-II tag removed with enterokinase, label: 32P (alpha-32P dGTP, 3' end fill-in), probe letters rebuilt from the primers and the genome, part of a longer molecule

Sequence | binding result
GCGGCCGGTACCCCGGTCGCCTGCCCCTCCGGCGAGGGCGCGGCGGGCGCGTTCTTCTTCTCGCAGGCCACCACGGCCAGGGCCAGGGTCGCGAGCAGCATCAGGGGACGGCGCATCGGCAAGGTTCCTCCGGGGGACGGTGGTGTCACCCTATCCCTCTCCCCCCCGCCCTCCAACCAGCGGCGCTTCAGGGAGGGATTCAAATTGCAATGTGGACTGAAACGGTCCTGATTACATATGAGGTCCTCCGTGGCCCGAGTTTTTTCGGCGCCTGGACCCAGAGAGGAGACACCCGCACCC (double strand) [suf promoter fragment (pPK14641, BamHI-HindIII)] | binds
GGCCAGCGAGGGGCCTGCCGGGAAATCAAGCGGTTGGCCGGAGGGTGTGCGCCATTCTGGGGCGCCTCGTCCCAGGACGGCGCGCCCGGACTGATCCACGATGGCGCGGCGTTCACTTAAGACGTCCTATTGGGAGCACGCACCCACACCCGCGGCGCGCCTGATGTTCGCTTGACCCGAAGGCGCCCCTTTTTATATTTGACCAGTCCGGTCCACATTCAGGTGTGACGGTGTAGGTTCCCCTGCGGCAAAGGCGCTCCGAGGCGCCGGTCGACGTCCCCTCCAGGAAGGTGTTGGAAGCA (double strand) [isc promoter fragment (pPK14640, BamHI-HindIII)] | binds

— PMC9973013
